The source of these data is PubChem BioAssay AID1508600 (Functional Genomics Laboratory (NCATS/FGL), 2020).

Screen size: about 53,000 sequences; about 3,700 (7%) were called active.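 How the source made its calls: active means gene knockdowns whose robust z-score for IL-1 alpha signal is at least 2 or at most -2, so actives lie on both sides; inactive means the rest.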 This is one part of the list.

The assay can be described thus: Components of the Cytosolic LPS Sensing Pathway: Gene Identification via Genome-wide siRNA Screen.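 Further: robust z of the log signal after scaling to non-targeting control siRNA wells of the plate.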 The following applies: RAW264.7 macrophages, IL-1a HTRF, actives lie on both sides, screened at 100 nM (by protocol), cells primed 5 h with Pam3CSK4 first. An outline of the steps:
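IL-1a HTRF of supernatants after 24 hour LipidA transfection of Pam3CSK4-primed (5 hours) RAW264.7 cells, 48h post-siRNA transfection (100 nM). Scores: percent of plate negative-control median, then log-based robust z-score.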
Background: In TR-FRET formats the signal depends on donor and acceptor labels being close together.
With GGCCUGCAUAGAUGAGAACTT against Ppp1r12c, the z-score is inactive: 0.147. Consider GGACACAUUCGAAUGAACCTT against Mkrn2, for which the z-score is inactive: 0.0809. The result for GGAGAAAGCUCAGCAUACATT against Usp3 reads inactive: -0.484; that for GGAAAUGAGCAAAACUUUUTT against Pcdhb22, inactive: 0.966. Turning to GGUCGUUACAGAAGAGUUUTT against Mageh1, the z-score is inactive: 1.48. As to GGGUAUUGAUCAUUUUUGGTT against Rasal3, the z-score was inactive: -1.99. Take GGUUUGAGAAUUUGAAGGUTT against Map2k3os: the z-score was inactive: 0.273. Turning to GGUUGUAGGUUAUAGCUGUTT against Dusp26, the z-score is inactive: 0.651. The figure for GGUGUCAUUCACAAAAACUTT against Csnk1g1 is inactive: -1.09; for GCAAGAAGUGGAGUAUUUUTT against Alkbh2 it is inactive: 0.369. For CCUUGAUCAUUUUAAUUGGTT against Olfr913, the z-score is inactive: -0.612. In the case of GGCUCAGAACCUUCUGAAATT against Exoc7, the z-score is inactive: -0.443. The result for GGUUACCCAUGCAGUUGUUTT against Hspa5 reads inactive: -0.24. The result for GGAUGAUAUUCUCAAGUUCTT against Psg26 reads inactive: 0.00514; that for GCUAAUUAAACGAAGCAUCTT against Lmo4, inactive: 0.67. Regarding GGUGUGUUACUGAUGAUUCTT against Olfr669, the z-score was inactive: -0.37.

As to GGAGAUCUAACUCUGUAUGTT against Hpse, the z-score was inactive: -0.2.

Regarding GGUACCAACACAAGUAACATT against Dyrk1a, the z-score is inactive: -0.449. The figure for GGACAGCCUUGUGUCAAAATT against Ramp2 is inactive: 0.295; for GGCCUGAAAGACGAAGAGATT against Stk38 it is inactive: -0.0215. The figure for CCUACUUCCUCCAUUUAGGTT against Ccdc162 is inactive: -1.31. Turning to GCCGGAAUGCCCUAAUUUCTT against Olfr684, the z-score was inactive: -0.584. For GGCGGAACACAUGACUAGGTT against Ilf3, the z-score is inactive: 0.189.

For GGAAAGUUCUAAUGUUCAUTT against Sumo1, the z-score was inactive: 1.55.

In the case of GGGACCUGUCGUCAGACUUTT against Gnb3, the z-score is inactive: 0.449.

For the sequence GGCUUUCAAUGAUUAGACATT against Ptpn20, the z-score is inactive: 0.341.

Regarding GGAAUUUCAAGACAAAGGUTT against Skap2, the z-score was inactive: -1.24.

For the sequence GGCCAGCAGACUAUUUAUUTT against Derl1, the z-score is inactive: 0.304. For GCGAACCUACGACUUCUACTT against Chst8, the z-score is inactive: 0.998. The figure for GGAGGUGGUACAGUAGCAUTT against Olfm4 is inactive: -0.258. The result for GGAGAAGUCAUGAAACAAATT against Prkn reads inactive: 0.349; that for CCCAAAAGAUCACAAAGUUTT against Fbxw13, inactive: 1.17. For CGACUACACAACCUUUGGGTT against Prl4a1, the z-score is inactive: 0.232. As for GGAAUUUCUCUUGGAAUUGTT against Rnft1, the z-score is inactive: 1.5.

Turning to “GGCCGUUUUAAGAAAGGCCTT against 5830427D03Rik”, the z-score was inactive: 1.34. Consider CCGAAUACGUGAAGACGCATT against Slc25a1, for which the z-score was inactive: -0.967.

Regarding GGUCUUGGCACAAUUACAUTT against Actl6a, the z-score was active: -2.07.

Consider GGGUACGGUUCAGUGACAATT against Insyn1, for which the z-score was inactive: -1.25.

For the sequence CGAAAGUGAUCAAAUAGAATT against Zcchc12, the z-score is inactive: 0.478.

Consider GGAAAACAAUGCCAAAGGGTT against Evx2, for which the z-score was inactive: 0.623. The result for GGUGGCUUCAUUUUAGAAGTT against Xpa reads inactive: -0.879. The result for “CCCUGCCUUCUGUUGAGAATT against 4930451I11Rik” reads inactive: 1.13. The result for GGAAGUGAGAUGUCACUGATT against Ssc5d reads inactive: 0.841. As for GCCGUAACUCUUGACAAUGTT against Stoml2, the z-score is inactive: 0.326.

Regarding CGGUUUGAGUAUAUUGGAGTT against Sh3d19, the z-score was inactive: -0.192. The result for GCGCAUAUUUUAUCAACUCTT against Plcb3 reads inactive: 0.38. The result for GGCUCAAGACUUAAAUUCATT against Olfr1100 reads inactive: 0.437; that for CGCCUUUUGGAAACGCAAATT against Sh3bp4, inactive: -0.165. In the case of CCUACAACGGGAAAACCGATT against Itprip, the z-score was inactive: 0.211.

On to GCCAUUUGUUAGCAGUCACTT against Zfp960, for which the z-score is inactive: -1.59. For the sequence GGUAUUAGCAUGUACCUUCTT against Olfr138, the z-score is inactive: 1.11. As for GCAGCUUAGUGAUUUGAAATT against Tex21, the z-score was inactive: -1.24. Take GGCGAAGAUUGAAAAAUGCTT against Ube3c: the z-score is inactive: -0.407. In the case of GGAUGACUCAAUAUUUGUCTT against Vmn1r46, the z-score was inactive: 0.222. The result for GGAGAUGUAUAAGAAAGCUTT against Rpl5 reads inactive: 0.0956; that for CCUAAGGCUGAAGCGGAGATT against Dusp9, inactive: 0.893.

As to CCGAUGCGCAAGUAAAAACTT against Tlx1, the z-score is inactive: -0.712. The figure for GGCAACCAGUUGAAAUAUUTT against Mbnl3 is inactive: 1.05; for GGAGAUUGAAGAGUUUGACTT against Rangap1 it is inactive: -0.265; for GGAGCUGUGGGAGAAGAACTT against Prxl2a it is inactive: -1.25.

As for GCUUAAAUUCUGUUCCAACTT against Ddx42, the z-score was inactive: 0.0745. For the sequence GGGUAAAACAAGAAUAUCATT against Nop9, the z-score was inactive: 0.246. The figure for GGAGAUAAUUGGUUUACAGTT against Vmn1r23 is inactive: -0.647; for GGUGCUCAAAGAAUGCAUUTT against Prkar1b it is inactive: 0.367.

Take GGCCAUAUACUGGGCUAUATT against Skiv2l: the z-score is inactive: -0.694.

On to GGCAUAUGCCAGUAUCGGUTT against Defb8, for which the z-score was inactive: -0.595. Regarding GGAAGCAGUUCAUGUUAAGTT against Dtx4, the z-score is inactive: 1.12. As to GGUGUAGCUGUGGUGGGUATT against Olfr360, the z-score was inactive: -0.142.
